Measured values as given in PubChem BioAssay AID588590 (National Center for Advancing Translational Sciences (NCATS), 2011).
Out of some 390,000 compounds screened, about 4,000 (1%) were called active. Inconclusive means that the source gave no clear call. Such entries were picked first, then a sample of the others. Calls come from the whole dose curve; as a rule, active = well fitted inhibition curve with a large enough effect; inconclusive = small, poorly fitted or top-dose-only effect, or another doubt; inactive = no such curve, though single readings can be large or run the other way. Where the call is inconclusive, the potency comes from a doubtful curve fit.

The chains behind the UniProt entries cited, without tags or fusion partners. Where a name states a change or a piece, a line headed by the entry shows the natural chain unless it says otherwise.
UniProt Q9UNA4: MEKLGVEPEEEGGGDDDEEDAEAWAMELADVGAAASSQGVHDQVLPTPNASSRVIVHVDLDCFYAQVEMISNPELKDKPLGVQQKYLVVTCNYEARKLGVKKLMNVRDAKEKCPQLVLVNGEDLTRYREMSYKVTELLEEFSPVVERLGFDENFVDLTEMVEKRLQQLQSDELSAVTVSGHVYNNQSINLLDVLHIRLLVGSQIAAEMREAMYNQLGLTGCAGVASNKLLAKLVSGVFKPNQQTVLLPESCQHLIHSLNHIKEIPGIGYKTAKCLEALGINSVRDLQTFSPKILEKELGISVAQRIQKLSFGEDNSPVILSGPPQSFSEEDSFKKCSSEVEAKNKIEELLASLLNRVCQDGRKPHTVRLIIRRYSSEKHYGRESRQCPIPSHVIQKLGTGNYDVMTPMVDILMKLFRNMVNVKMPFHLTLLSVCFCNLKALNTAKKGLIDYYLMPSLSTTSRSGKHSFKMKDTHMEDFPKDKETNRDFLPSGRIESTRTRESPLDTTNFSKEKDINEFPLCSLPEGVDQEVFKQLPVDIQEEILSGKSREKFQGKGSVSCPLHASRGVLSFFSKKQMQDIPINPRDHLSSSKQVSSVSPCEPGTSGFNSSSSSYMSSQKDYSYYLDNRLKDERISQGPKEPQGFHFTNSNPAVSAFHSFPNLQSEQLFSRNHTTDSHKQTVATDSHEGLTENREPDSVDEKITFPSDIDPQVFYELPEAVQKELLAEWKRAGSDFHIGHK

Biological target: DNA polymerase iota (Homo sapiens) (UniProt Q9UNA4)
Experiment: qHTS for Inhibitors of Polymerase Iota
Conditions: Pol iota fluorescent replication assay, 10 min; series mostly up to 115 µM
Method in brief: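 Fluorescent replication assay read twice, at 0 min and 10 min after adding 50 nM (final) substrate. Enzyme (10 nM) and compounds were first incubated 15 min at room temperature; enzyme-free buffer wells were negative controls.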
Potency is the fitted concentration of half-maximal effect.

| SMILES | Potency |
| --- | --- |
| Cn1c(CO)c(-c2ccccc2)c2cc([N+](=O)[O-])ccc21 | inconclusive: 39.8 µM [inhibitor, single point] |
| Nc1cccc(-c2nc3ccccc3s2)c1 | inconclusive: 39.8 µM [inhibitor, single point] |
| CN1C[C@@H]2[C@@H]3C(=O)N(C)C(=O)[C@@H]3[C@](C)(C1=O)N2C(=O)c1ccc(Cl)c(Cl)c1 | inconclusive: 56.2 µM [inhibitor, partial curve, poor fit] |
| O=C(c1cccc(Cl)c1)N(Cc1ccco1)C1CCS(=O)(=O)C1 (stereo not drawn) | inactive |
| O=C1CN(S(=O)(=O)c2cc(C(=O)O)ccc2Cl)c2ccccc2N1 | inconclusive: 5.01 µM [inhibitor, full curve, poor fit] |
| CCCC[C@@H]1CNCCN1CCc1cccc2ccccc12 | inconclusive: 1.12 µM [inhibitor, full curve, poor fit] |
| CCn1c(=O)c2sccc2n2c(CCC(=O)N3CCN(c4ccccc4OC)CC3)nnc12 | inactive |
| O=C(c1ccc(CS(=O)c2ccccc2Cl)o1)N1CCN(c2cccc(C(F)(F)F)c2)CC1 (stereo not drawn) | inconclusive: 100 µM [inhibitor, single point] |
| O=C1NC2(CCCCC2)C(=O)N1c1ccccc1 | inconclusive: 35.5 µM [inhibitor, single point] |
| Cc1ccc(NC(=O)Cn2sc3nc(C)cc(C)c3c2=O)c(Cl)c1 | inactive |
| NS(=O)(=O)c1ccc(N=Nc2c(O)c(C(=O)O)cc3ccccc23)cc1 | inconclusive: 25.1 µM [inhibitor, partial curve, poor fit] |
| Cc1ccc(NC(=O)CSCC(=O)Nc2ccccc2N2CCCC2)cc1 | inconclusive: 50.1 µM [inhibitor, partial curve, poor fit] |
| COc1ccc(C2(C)NC(=O)N(CC(=O)Nc3ccc(C)cc3Br)C2=O)cc1OC (stereo not drawn) | inconclusive: 89.1 µM [inhibitor, single point] |
| CCCc1cc(=S)n2c([nH]c3ccccc32)c1C#N | inconclusive: 28.2 µM [inhibitor, partial curve, poor fit] |
| O=C(O)Cc1sc(Nc2ccc(C(=O)O)cc2)nc1-c1ccccc1 | inconclusive: 56.2 µM [inhibitor, partial curve, poor fit] |
| COc1ccc(C(=O)OCC(=O)NCc2ccco2)cc1OC | active: 20 µM |
| Cc1cc2oc3ccc(NCCC4CCCN4C)cc3c(=O)c2cc1C (stereo not drawn) | inconclusive: 35.5 µM [inhibitor, full curve] |
| Cc1ccccc1NC(=O)CCOc1ccccc1 | inconclusive: 31.6 µM [inhibitor, single point] |
| COc1ccc(CNC(=O)C2CCN(S(=O)(=O)c3c(C)noc3/C=C/c3cccs3)CC2)cc1 | inactive |
| COC(=O)CCCC1=CC2=CC(=O)C(C)(OC(=O)c3cccs3)C(=O)C2=CN1c1ccc(OC)cc1 (stereo not drawn) | inactive |
| CCC(C)Sc1ccc(-c2nc3ccc(Cl)cn3c2NCc2ccccc2)cc1 (stereo not drawn) | inconclusive: 15.8 µM [inhibitor, partial curve, poor fit] |
| CC(OC(=O)c1ccc(-n2cnnn2)cc1)C(=O)Nc1ccccc1F (stereo not drawn) | inactive |

Some of these compounds in order of count of non-hydrogen atoms, descending:

| SMILES | Potency |
| --- | --- |
| CCC(C)Sc1ccc(-c2nc3ccc(Cl)cn3c2NCc2ccccc2)cc1 (stereo not drawn) | inconclusive: 15.8 µM [inhibitor, partial curve, poor fit] |
| O=C(c1cccc(Cl)c1)N(Cc1ccco1)C1CCS(=O)(=O)C1 (stereo not drawn) | inactive |
| CCCc1cc(=S)n2c([nH]c3ccccc32)c1C#N | inconclusive: 28.2 µM [inhibitor, partial curve, poor fit] |

(more compounds)

| SMILES | Potency |
| --- | --- |
| CCCCNC(=O)c1ccccc1NC(=O)c1ccc2c(c1)OCO2 | inconclusive: 56.2 µM [inhibitor, partial curve, poor fit] |
| Cc1ccccc1S(=O)(=O)Cc1ccc(C(=O)NCc2ccccc2Cl)o1 | inactive |
| COc1ccc(OC)c(/C(O)=C/C(=O)C(=O)Nc2cc(C)ccc2OC)c1 | inconclusive: 0.631 µM [inhibitor, full curve, poor fit] |
| Nc1nn(-c2ccccc2)nc1C(=O)OCc1ccccc1Br | inactive |
| Cc1c(Br)cc(C(=O)OC2CCN(C)CC2)c(C)c1C | inconclusive: 89.1 µM [inhibitor, partial curve, poor fit] |
| Cc1csc(C(=O)O)c1-n1cccc1 | inconclusive: 89.1 µM [inhibitor, partial curve, poor fit] |
| CCc1nnc(NC(=O)C2CC(=O)N(c3ccc(C)cc3)C2)s1 (stereo not drawn) | inconclusive: 28.2 µM [inhibitor, single point] |
| Cn1cc(-c2cc3n(n2)CCC(=O)N3CCCC(=O)Nc2ccccc2Cl)c2ccccc21 | inconclusive: 79.4 µM [inhibitor, partial curve] |
| COc1ccc(C(=O)Oc2ccc(/C=N/NC(=O)c3ccccc3OC)cc2[N+](=O)[O-])cc1 | inactive |
| COc1ccc(C(CNC(=O)c2ccc(C)c(S(=O)(=O)N3CCCCC3)c2)N2CCCC2)cc1 (stereo not drawn) | inconclusive: 89.1 µM [inhibitor, single point] |
| COc1cc2nc(N(C)C)nc(N)c2cc1OC | inconclusive: 31.6 µM [inhibitor, partial curve, poor fit] |
| O=C(CNC(=O)c1cccc([N+](=O)[O-])c1)NC1CCCc2ccccc21 (stereo not drawn) | inactive |
| Cc1ccc(S(=O)(=O)N(Cc2n[nH]c(=S)n2-c2ccccc2)c2cccc(Cl)c2)cc1 | inconclusive: 79.4 µM [inhibitor, partial curve, poor fit] |
| CCC1Sc2ccc(S(=O)(=O)Nc3cc(OC)cc(OC)c3)cc2NC1=O (stereo not drawn) | inactive |
| CN1C2C=C3C(C#N)=C(N)C(C#N)(C#N)[C@@H](c4cccc(F)c4)[C@@H]3C1CC2 (stereo partly drawn) | active: 20 µM |
| COc1ccc2c(c1)c1c(c(=O)n(Cc3ccccc3)c(=O)n1Cc1ccccc1)n2C | inactive |
| CCSc1ncc(Cl)c(C(=O)N(Cc2ccc(C(C)(C)C)cc2)C2CCS(=O)(=O)C2)n1 (stereo not drawn) | inconclusive: 89.1 µM [inhibitor, partial curve] |
| O=C(O)Cn1cc(/C=C/[N+](=O)[O-])c2ccccc21 | active: 28.2 µM |
| COCCCN1C(=O)C(=O)/C(=C(/O)c2ccc(C)cc2)C1/C=C/c1ccccc1 (stereo not drawn) | inconclusive: 17.8 µM [inhibitor, partial curve, poor fit] |
| CC(=O)N1CCOc2cc(S(=O)(=O)Nc3cc(C(F)(F)F)ccc3Cl)c(C)cc21 | inactive |
| N#Cc1ccccc1S(=O)c1ccccc1C(=O)Nc1ccccc1 (stereo not drawn) | inconclusive: 100 µM [inhibitor, single point] |
